From patent US20080014143A1 (SANFORD BURNHAM MEDICAL RESEARCH INSTITUTE, published 2008)
Results are given in words; binding and its absence hold for the method and conditions named. Binding seen in cells or lysates may run through a third protein. Here binding means that the protein was enriched with, or labelled near, the bait; the list need not be complete.

By UniProt entry, the sequences of proteins in these tests, tags left out. Residues count along the entry.
UniProt Q07021, residues 74-282: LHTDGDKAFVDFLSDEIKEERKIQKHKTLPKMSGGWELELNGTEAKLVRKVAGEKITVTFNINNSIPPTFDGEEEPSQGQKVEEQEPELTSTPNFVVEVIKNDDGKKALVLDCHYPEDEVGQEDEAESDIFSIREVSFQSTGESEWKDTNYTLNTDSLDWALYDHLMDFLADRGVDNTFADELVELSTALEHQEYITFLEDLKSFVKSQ

Target: endogenous gC1qR/p32 of tumor cells and tissues (extracts of MDA-MB-435 cells, BT549 cells, MDA-MB-435 tumor xenografts; blots and sections) (human) (UniProt Q07021)
Test: pull-down with biotinylated peptide from MDA-MB-435 cell and xenograft extracts; silver stain, mass spectrometry, immunoblot

- binding: binds
Binder: CGNKRTRGC (biotinylated (site not told); described as a cyclic nonapeptide) [biotinylated LyP-1 peptide (…)]
